According to publication PMC3637451:
These are yes or no findings as the source states them, for the method shown. In cells and extracts the contact can be indirect. Some results given as binding are weak or reduced against the parent protein; the word gives no strength.

The chains behind the UniProt entries cited, without tags or fusion partners.
UniProt Q62406: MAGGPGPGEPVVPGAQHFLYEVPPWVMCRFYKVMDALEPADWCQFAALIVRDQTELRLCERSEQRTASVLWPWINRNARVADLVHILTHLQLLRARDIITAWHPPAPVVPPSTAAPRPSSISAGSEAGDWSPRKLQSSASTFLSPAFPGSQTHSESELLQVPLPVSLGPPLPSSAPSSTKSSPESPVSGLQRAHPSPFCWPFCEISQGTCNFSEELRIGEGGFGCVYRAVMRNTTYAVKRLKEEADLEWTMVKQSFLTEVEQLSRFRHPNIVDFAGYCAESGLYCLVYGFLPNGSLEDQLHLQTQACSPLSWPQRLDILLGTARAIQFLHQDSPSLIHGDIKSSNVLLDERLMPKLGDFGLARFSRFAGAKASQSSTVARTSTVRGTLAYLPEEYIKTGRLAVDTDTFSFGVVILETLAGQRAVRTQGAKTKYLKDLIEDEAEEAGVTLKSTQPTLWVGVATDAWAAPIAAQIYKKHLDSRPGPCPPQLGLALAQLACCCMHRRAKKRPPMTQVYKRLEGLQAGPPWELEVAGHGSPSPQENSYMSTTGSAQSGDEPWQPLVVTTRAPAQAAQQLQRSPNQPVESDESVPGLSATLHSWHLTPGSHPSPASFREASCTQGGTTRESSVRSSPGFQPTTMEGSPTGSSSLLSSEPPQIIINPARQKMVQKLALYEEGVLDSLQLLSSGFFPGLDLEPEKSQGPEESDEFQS

Target: Interleukin-1 receptor-associated kinase 1 (mouse (endogenous in BMDC)) (UniProt Q62406)
Assay: co-IP; IRAK1 antibody (or its agarose conjugate) on lysates of mouse BMDC treated with 100 ng/ml sMLA or sDLA for the indicated times; lysis in 50 mM Tris HCl pH 7.4, 100 mM NaCl, 1 mM EDTA, 50 mM NaF with 1% digitonin or 0.2% NP-40; blots probed for TRAF6 and IRAK1

binding: binds
B1: TNF receptor-associated factor 6 (protein, UniProt P70196 1-530)
chain: MSLLNCENSCGSSQSSSDCCAAMAASCSAAVKDDSVSGSASTGNLSSSFMEEIQGYDVEFDPPLESKYECPICLMALREAVQTPCGHRFCKACIIKSIRDAGHKCPVDNEILLENQLFPDNFAKREILSLTVKCPNKGCLQKMELRHLEDHQVHCEFALVNCPQCQRPFQKCQVNTHIIEDCPRRQVSCVNCAVSMAYEEKEIHDQSCPLANIICEYCGTILIREQMPNHYDLDCPTAPIPCTFSVFGCHEKMQRNHLARHLQENTQLHMRLLAQAVHNVNLALRPCDAASPSRGCRPEDPNYEETIKQLESRLVRQDHQIRELTAKMETQSMYVGELKRTIRTLEDKVAEMEAQQCNGIYIWKIGNFGMHLKSQEEERPVVIHSPGFYTGRPGYKLCMRLHLQLPTAQRCANYISLFVHTMQGEYDSHLPWPFQGTIRLTILDQSEALIRQNHEEVMDAKPELLAFQRPTIPRNPKGFGYVTFMHLEALRQGTFIKDDTLLVRCEVSTRFDMGGLRKEGFQPRSTDAGV
